For assay [1], the target named is Flag-KBTBD4^P311PP, pcDNA3.1(+) construct (human) (UniProt Q9NVX7). Description: affinity purification with mass spectrometry; HEK293T transfected with Flag-KBTBD4 wild type or mutants; 100 nM MLN4924 for 4 h; ANTI-FLAG M2 Affinity Gel, eluted with 3xFLAG peptide; tryptic digest, LC-MS/MS.
Assay [2] has as its target Flag-KBTBD4^R313PRR, pcDNA3.1(+) construct (human) (UniProt Q9NVX7). The description is as above.

Protein sequences, listed by entry. Tags and fused reporters are not part of them. Lines headed by an entry give the natural chain unless they say otherwise; changes in a name come on top.
UniProt Q9NVX7: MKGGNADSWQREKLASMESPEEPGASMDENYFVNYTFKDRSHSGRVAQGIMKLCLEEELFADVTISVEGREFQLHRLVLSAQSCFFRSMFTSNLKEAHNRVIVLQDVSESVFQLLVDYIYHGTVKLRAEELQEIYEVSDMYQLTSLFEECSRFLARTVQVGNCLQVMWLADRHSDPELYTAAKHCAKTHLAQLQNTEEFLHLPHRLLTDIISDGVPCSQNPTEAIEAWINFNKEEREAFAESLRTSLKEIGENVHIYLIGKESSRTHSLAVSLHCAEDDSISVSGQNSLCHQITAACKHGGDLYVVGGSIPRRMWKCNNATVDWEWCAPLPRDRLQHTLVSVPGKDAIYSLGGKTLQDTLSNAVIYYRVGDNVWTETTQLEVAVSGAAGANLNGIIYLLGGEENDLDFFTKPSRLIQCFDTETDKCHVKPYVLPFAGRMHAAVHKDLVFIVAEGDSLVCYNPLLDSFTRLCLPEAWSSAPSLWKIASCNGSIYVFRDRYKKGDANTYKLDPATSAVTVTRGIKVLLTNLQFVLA

These are yes or no findings as the source states them, for the method shown. In cells and extracts the contact can be indirect. Here binding means that the protein was enriched with, or labelled near, the bait; the list need not be complete.

B1: HMG20B (protein, UniProt Q9P0W2 1-317)
chain: MSHGPKQPGAAAAPAGGKAPGQHGGFVVTVKQERGEGPRAGEKGSHEEEPVKKRGWPKGKKRKKILPNGPKAPVTGYVRFLNERREQIRTRHPDLPFPEITKMLGAEWSKLQPTEKQRYLDEAEREKQQYMKELRAYQQSEAYKMCTEKIQEKKIKKEDSSSGLMNTLLNGHKGGDCDGFSTFDVPIFTEEFLDQNKAREAELRRLRKMNVAFEEQNAVLQRHTQSMSSARERLEQELALEERRTLALQQQLQAVRQALTASFASLPVPGTGETPTLGTLDFYMARLHGAIERDPAQHEKLIVRIKEILAQVASEHL
B1: the binding entry in assay [1] and in assay [2] was “binds” each time.

B2: Genetic Suppressor Element 1 (GSE1) (protein, UniProt Q14687 1-1217)
chain: MKGMSHEPKSPSLGMLSTATRTTATVNPLTPSPLNGALVPSGSPATSSALSAQAAPSSSFAAALRKLAKQAEEPRGSSLSSESSPVSSPATNHSSPASTPKRVPMGPIIVPPGGHSVPSTPPVVTIAPTKTVNGVWRSESRQDAGSRSSSGGRERLIVEPPLPQEKAGGPAIPSHLLSTPYPFGLSPSSVVQDSRFPPLNLQRPVHHVVPPSTVTEDYLRSFRPYHTTDDLRMSSLPPLGLDPATAAAYYHPSYLAPHPFPHPAFRMDDSYCLSALRSPFYPIPTPGSLPPLHPSAMHLHLSGVRYPPELSHSSLAALHSERMSGLSAERLQMDEELRREREREREREREREADREREKEREREREKEREQEKEREREKERERELERQREQRAREKELLAAKALEPSFLPVAELHGLRGHATEERGKPSEQLTPTRAEKLKDAGLQAPKPVQHPLHPVPTPHHTVPSLISNHGIFSLPSSSAATALLIQRTNEEEKWLARQRRLRQEKEDRQSQVSEFRQQVLEQHLDMGRPPVPAEAEHRPESTTRPGPNRHEPGGRDPPQHFGGPPPLISPKPQLHAAPTALWNPVSLMDNTLETRRAESHSLHSHPAAFEPSRQAAVPLVKVERVFCPEKAEEGPRKREPAPLDKYQPPPPPPREGGSLEHQPFLPGPGPFLAELEKSTQTILGQQRASLPQAATFGELSGPLKPGSPYRPPVPRAPDPAYIYDEFLQQRRRLVSKLDLEERRRREAQEKGYYYDLDDSYDESDEEEVRAHLRCVAEQPPLKLDTSSEKLEFLQLFGLTTQQQKEELVAQKRRKRRRMLRERSPSPPTIQSKRQTPSPRLALSTRYSPDEMNNSPNFEEKKKFLTIFNLTHISAEKRKDKERLVEMLRAMKQKALSAAVADSLTNSPRDSPAVSLSEPATQQASLDVEKPVGVAASLSDIPKAAEPGKLEQVRPQELSRVQELAPASGEKARLSEAPGGKKSLSMLHYIRGAAPKDIPVPLSHSTNGKSKPWEPFVAEEFAHQFHESVLQSTQKALQKHKGSVAVLSAEQNHKVDTSVHYNIPELQSSSRAPPPQHNGQQEPPTARKGPPTQELDRDSEEEEEEDDEDGEDEEEVPKRKWQGIEAVFEAYQEHIEEQNLERQVLQTQCRRLEARHYSLSLTAEQLSHSVAELRSQKQKMVSERERLQAELDHLRKCLALPAMHWPRGYLKGYPR
As to B2, the binding result in assay [1] and in assay [2] was “binds” throughout.

The record behind these values is paper PMC9525703.
